Test results as given in EP0696280B1, “SUBSTITUTED PYRROLIDIN-3-YL-ALKYL-PIPERIDINES USEFUL AS TACHYKININ ANTAGONISTS” (MERRELL PHARMACEUTICALS INC., priority 1993, dated 1994).
Counter-ions that a name gives are not always drawn. Some entries share one result that the patent states for a list of compounds.

Molecular target: T1, NK2 receptor (Bos taurus, UniProt P05363)
T1 construct: expressed in transfected cells; host or cells: SKLKB82#3 cells
T1 sequence (P05363 1-384): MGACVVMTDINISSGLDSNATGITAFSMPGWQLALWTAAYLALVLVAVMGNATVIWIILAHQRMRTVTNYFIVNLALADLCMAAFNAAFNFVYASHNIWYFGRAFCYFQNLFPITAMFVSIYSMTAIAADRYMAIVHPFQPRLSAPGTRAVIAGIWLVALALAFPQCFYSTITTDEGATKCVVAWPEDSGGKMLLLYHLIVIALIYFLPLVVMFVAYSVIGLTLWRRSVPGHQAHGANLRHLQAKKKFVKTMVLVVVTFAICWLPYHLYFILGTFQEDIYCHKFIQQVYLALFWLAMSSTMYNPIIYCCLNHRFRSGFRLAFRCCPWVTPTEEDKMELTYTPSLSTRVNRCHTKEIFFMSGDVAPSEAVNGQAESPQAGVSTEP
Test: Antagonism of NK2 receptor mediated (NKA-induced) phosphatidylinositol turnover in SKLKB82#3 cells
Type: cell-based
Conditions: result in words
Procedure: Tachykinin-mediated inositol phosphate accumulation was measured in UCll or SKLKB82#3 cells in the presence and absence of NK1 or NK2 receptor antagonists, respectively. Tissues were incubated in Krebs-Henseleit buffer at 37°C with 95% O2-5% CO2 gassing. Tissues were then incubated with fresh buffer containing 100 µCi of myo-[2-^3H(N)] inositol at 37°C for 60 min with gentle gassing. After washing twice at room temperature in 5 ml buffer containing 10 mM LiCl, tissues were incubated for 30 min at room temperature with a buffer change at 15 min. Buffer was removed and Krebs-Henseleit buffer (containing 40 µg/ml bacitracin, 4 µg/ml each of leupeptin and chymostatin, 0.1% bovine serum albumin and 10 mM each of thiorphan and LiCl) added. After 15 min, SP was added to UCll cells or NKA to SKLKB82#3 cells at various concentrations to start the reaction. […] The third elution was collected and 1 ml counted in 7 ml scintillation fluid. A 50 µl aliquot of the organic (bottom) phase was removed, dried in a scintillation vial and counted in 7 ml scintillation fluid.
The ratio of DPM in the aqueous phase aliquot (total inositol phosphates) to the DPM in the 50 µl organic phase aliquot (total [^3H]inositol incorporated) was calculated for each sample. Data are expressed as a percent of agonist-induced accumulation of [^3H]-inositol phosphates over basal levels. […] Dose-response graphs were constructed and the abilities of the test compounds to inhibit tachykinin-induced phosphatidylinositol turnover determined with the aid of a computer program. […] Data is expressed as percent stimulation of total inositol phosphate accumulation over basal levels and normalized to the maximum response produced by SP. […] Schild analysis is performed using dose response curves (such as those presented in Figures 1a and 1b) to obtain a value indicative of the strength of a competitive antagonist and is expressed as the pA2, which is the negative logarithm of the molar concentration of antagonist which reduces the effect of a dose of agonist to one-half of that expected at the dose of agonist. […]

SMILES	agonist activity (stimulation of PI turnover by compound alone)
COc1cc(C(=O)N2CCC(CCN3CCC(C(N)=O)(c4ccccc4)CC3)(c3ccc(Cl)c(Cl)c3)C2)cc(OC)c1OC (single isomer, unassigned; (+)) [Example 20, (+)-1-[2-[3-(3,4-dichloro-phenyl)-1-(3,4,5-trimethoxy-benzoyl)-pyrrolidin-3-yl]-ethyl]-4-phenyl-piperidine-4-carboxylic acid amide]	absence of agonist activity
COc1cc(C(=O)N2CCC(CCN3CCC(C(N)=O)(c4ccccc4)CC3)(c3ccc(Cl)c(Cl)c3)C2)cc(OC)c1OC (stereo not drawn) [Example 3, 1-[2-[3-(3,4-dichloro-phenyl)-1-(3,4,5-trimethoxy-benzoyl)-pyrrolidin-3-yl]-ethyl]-4-phenyl-piperidine-4-carboxylic acid amide]	no agonist activity
COc1cc(C(=O)N2CCC(CCN3CCC(C(N)=O)(c4ccccc4)CC3)(c3ccc(Cl)c(Cl)c3)C2)cc(OC)c1OC (racemic) [Example 3A, 1-[2-[3-(3,4-dichloro-phenyl-3-yl)-1-(3,4,5-trimethoxy-benzoyl)-pyrrolidin-3-yl]-ethyl] -4-phenyl-piperidine-4-carboxylic acid amide hydrochloride]	absence of agonist activity
